Reference: PubChem BioAssay AID588590 (National Center for Advancing Translational Sciences (NCATS), 2011)
“And” between values parts separate entries of the source, which are not always exact repeats. Equal entries are not always repeated. About 4,000 (1%) of roughly 390,000 compounds were called active. Inconclusive results, whose numbers are uncertain, are shown with a selection of clear calls. The call rests on the fitted dose curve; in most records, active means well fitted inhibition curve with a large enough effect; inconclusive means small, poorly fitted or top-dose-only effect, or another doubt; inactive means no such curve, though single readings can be large or run the other way. Potencies of inconclusive entries are doubtful fits and often do not repeat.

Sequences of proteins named here, by UniProt entry; tags and fusion partners are left off. A change or cut given only in a name is not applied to a line headed by its entry.
UniProt Q9UNA4: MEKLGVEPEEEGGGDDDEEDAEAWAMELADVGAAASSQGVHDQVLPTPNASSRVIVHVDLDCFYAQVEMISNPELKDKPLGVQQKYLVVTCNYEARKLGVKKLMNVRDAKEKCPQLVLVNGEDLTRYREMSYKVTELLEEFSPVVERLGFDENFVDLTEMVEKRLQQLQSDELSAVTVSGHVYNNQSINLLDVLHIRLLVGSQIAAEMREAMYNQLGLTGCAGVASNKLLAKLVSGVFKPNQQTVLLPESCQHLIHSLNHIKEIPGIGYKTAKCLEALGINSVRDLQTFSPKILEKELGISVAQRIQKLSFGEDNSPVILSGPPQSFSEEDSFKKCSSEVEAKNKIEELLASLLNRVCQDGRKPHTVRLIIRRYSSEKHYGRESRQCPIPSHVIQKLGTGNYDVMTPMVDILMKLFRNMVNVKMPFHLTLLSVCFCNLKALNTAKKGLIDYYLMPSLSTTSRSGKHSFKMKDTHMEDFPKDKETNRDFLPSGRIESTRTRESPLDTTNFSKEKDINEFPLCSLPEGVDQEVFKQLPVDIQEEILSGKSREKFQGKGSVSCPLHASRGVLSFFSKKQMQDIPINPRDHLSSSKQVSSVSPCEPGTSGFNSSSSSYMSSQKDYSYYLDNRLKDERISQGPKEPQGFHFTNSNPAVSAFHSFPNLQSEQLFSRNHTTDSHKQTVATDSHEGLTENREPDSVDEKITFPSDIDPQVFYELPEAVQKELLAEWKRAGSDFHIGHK

Molecular target: DNA polymerase iota (Homo sapiens) (UniProt Q9UNA4)
Assay: qHTS for Inhibitors of Polymerase Iota
Conditions: Pol iota fluorescent replication assay, 10 min; series mostly up to 115 µM
In short: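 Fluorescent replication assay read twice, at 0 min and 10 min after adding 50 nM (final) substrate. Enzyme (10 nM) and compounds were first incubated 15 min at room temperature; enzyme-free buffer wells were negative controls.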
Potency means the concentration at half of the fitted maximal effect.

Potency, inactive:
COC(=O)c1ccc([C@H]2Nc3ccc(S(=O)(=O)Nc4ccc(F)cc4)cc3[C@H]3C=CC[C@H]32)cc1
O=C(Nc1ccc(Cl)c(Cl)c1)N(Cc1c[nH]c2ccccc12)C1CCCCC1
CCCCOC(=O)c1ccc(NC2=NS(=O)(=O)c3ccccc32)cc1
CCOc1ccc(N2CC(C(=O)NCCCc3ccccc3)CC2=O)cc1 (stereo not drawn)
COc1ccc2[nH]cc(CCNC(=O)Nc3cc(C)cc(C)c3)c2c1
Cc1nn(CC(=O)NCCc2cccs2)c(=O)c2cc3ccccc3n12
O=C(CC1Sc2ccccc2NC1=O)NCc1ccc(Cl)cc1 (stereo not drawn)
O=C(Nc1nc2ccccc2[nH]1)c1ccc(F)cc1
CC(C)N1CCc2c(sc(NC(=O)c3ccc4ccccc4c3)c2C(N)=O)C1
CC(=O)Nc1ccc(Nc2ccc3cc(S(=O)(=O)N4CCCCC4)ccc3n2)cc1
CCOc1ccc(C(=O)NCCc2csc(-c3cccc(C)c3)n2)cc1

Potency, active:
Cc1cccc(C)c1NC(=O)CN(C)C(=O)c1cccc(-n2cccc2)c1 8.91 µM
NC(=O)C1CCN(C2=C(Cl)C(=O)c3ccccc3C2=O)CC1 2.82 µM
O=C(CSc1nc2scc(-c3ccco3)c2c(=O)n1-c1ccccc1)NCC1CCCO1 (stereo not drawn) 39.8 µM

Potency, inconclusive:
O=C(O)COc1ccc(/C=C/C(=O)c2ccc(C3CCCCC3)cc2)cc1 25.1 µM [inhibitor, partial curve]
O=C1CCN(Cc2ccccc2)CCN1[C@H](COc1ccccc1)Cc1ccccc1 63.1 µM [inhibitor, single point]
Cc1cc(C(=O)CCl)c(C)n1CCc1ccc(Cl)cc1 15.8 µM [inhibitor, full curve, poor fit]
COc1ccc(-c2ccc(NS(=O)(=O)c3cc([N+](=O)[O-])c(C)c([N+](=O)[O-])c3)cc2)nn1 50.1 µM [inhibitor, partial curve]
CC(=O)C1=C(C)N(Cc2ccccc2)C(=O)N[C@H]1c1ccco1 44.7 µM [inhibitor, partial curve]
OC1CCN(Cc2cccc3ccccc23)CC1 25.1 µM [inhibitor, partial curve]
Cn1c(NC(=O)c2cc(Cl)ccc2Cl)cc(=O)n(C)c1=O 39.8 µM [inhibitor, partial curve, poor fit]
Cc1ccc(S(=O)(=O)N2CCCc3cc(NS(=O)(=O)c4ccccc4)ccc32)cc1 89.1 µM [inhibitor, single point]
CCOC(=O)c1ccc(N2CCN(c3ccc(F)cc3)CC2)c(NC(=O)Nc2ccc(CC)cc2)c1 1.41 µM [inhibitor, full curve, poor fit]
COC/C=C/C1=CC2=CC(=O)C(C)(OC(=O)c3cnc4ccccc4n3)C(=O)C2=CN1CC1CC1 (stereo not drawn) 20 µM [inhibitor, full curve, poor fit]
Cc1nc2scc(-c3ccc(C(C)(C)C)cc3)c2c(=O)n1N 79.4 µM [inhibitor, partial curve, poor fit]
CCOc1ccc2nc3c(cc2c1)CN(CCCO)C(=NCCOC)S3 7.94 µM [inhibitor, single point]
CC(=O)Nc1ccc(NC(=O)CSc2nnc(NC(=O)c3ccc(Br)o3)s2)cc1 39.8 µM [inhibitor, single point]
O=C(N/N=C\c1cc(Br)c(Br)o1)C1COc2ccccc2O1 (stereo not drawn) 28.2 µM [inhibitor, partial curve]
Cc1ccc(NC(=O)CSc2nncn3c2cc2sccc23)cc1F 100 µM [inhibitor, partial curve, poor fit]
CC(C)(C)c1ccc(C(=O)NNC(=O)c2cccc(Br)c2)cc1 89.1 µM [inhibitor, single point]
CC[n+]1c(/C=C2\C=C(C)CC(C)C2)sc2ccccc21 (stereo not drawn) 11.2 µM [inhibitor, partial curve, poor fit]
O=c1c2c(-c3cccc([N+](=O)[O-])c3)ccnc2[nH]n1-c1ccccc1 14.1 µM [inhibitor, partial curve]
O=C1CN(C(=O)COC(=O)c2ccc([N+](=O)[O-])s2)c2ccccc2N1 89.1 µM [inhibitor, single point]
CN1C(=O)C(CC(=O)Nc2ccc(Cl)cc2)N(Cc2ccco2)C1=S (stereo not drawn) 17.8 µM [inhibitor, single point]
CN(C)c1ccc(C(C[N+](=O)[O-])c2c(N)n(C)c(=O)n(C)c2=O)c(F)c1C#N (stereo not drawn) 70.8 µM [inhibitor, single point]
COc1ccc(-c2cc(-c3cc(OC)ccc3O)[nH]n2)cc1 89.1 µM [inhibitor, single point]
Fc1ccc(-c2nc3c4c(-c5ccccc5)c(-c5ccccc5)oc4ncn3n2)cc1 89.1 µM [inhibitor, partial curve, poor fit]
COCCn1nnnc1C(C(C)C)N1CCCC(C)C1 (stereo not drawn) 14.1 µM [inhibitor, full curve, poor fit]
O=c1c2cccnc2n(Cc2cccc(F)c2)c(=O)n1Cc1ccc(F)cc1 89.1 µM [inhibitor, partial curve, poor fit]
O/N=C1/CCCCc2sccc21 2.51 µM [inhibitor, partial curve, poor fit]
CC(C)N(C(=S)Nc1cccc(S(=O)(=O)N(C)C)c1)c1ccccc1 0.631 µM [inhibitor, full curve, poor fit]
COc1ccccc1Nc1nc(-c2ccccc2)c(CC(=O)O)s1 5.01 µM [inhibitor, full curve, poor fit]
COC(=O)CNC(=O)C1Cc2ccccc2CN1S(=O)(=O)c1cccs1 (stereo not drawn) 100 µM [inhibitor, partial curve, poor fit]
Cc1ccccc1NC(=O)C1C2CCCCC21 (stereo not drawn) 17.8 µM [inhibitor, partial curve]
Cc1ccc(OCCC(=O)Nc2ccc(S(=O)(=O)Nc3nccs3)cc2)cc1 79.4 µM [inhibitor, partial curve, poor fit]
Cc1ccc(S[C@@H](CCN2CC[C@H](C(C)(C)C)CCC2=O)c2ccccc2)cc1 39.8 µM [inhibitor, single point]
C=CCOc1ccc(C2=NO[C@@H]3[C@@H]4C[C@@H]([C@H]5C(=O)N(C)C(=O)[C@@H]45)[C@H]23)cc1 44.7 µM [inhibitor, partial curve, poor fit]
COc1ccc(NCC(=O)N/N=C/C2CCCCC2)cc1 89.1 µM [inhibitor, single point]
Cc1ccc(NC(=O)CSCc2cc(=O)n3cc(C)sc3n2)c(C)c1 79.4 µM [inhibitor, partial curve]
COc1cc(OC)c(OC)cc1/C=N/n1c(COc2ccccc2)n[nH]c1=S 12.6 µM [inhibitor, partial curve, poor fit]
O=C(O)CCCC(=O)N1N=C(c2ccco2)CC1c1ccco1 (stereo not drawn) 39.8 µM [inhibitor, single point]
CSc1nnc(NC(=O)c2nc(S(=O)(=O)Cc3cccc(C)c3)ncc2Cl)s1 25.1 µM [inhibitor, partial curve]
CC(NC(=O)c1cc2ccccc2o1)c1cccs1 (stereo not drawn) 70.8 µM [inhibitor, partial curve, poor fit]
CCOC(=O)CC(=O)CSc1nc2ccc(C)cc2cc1C#N 31.6 µM [inhibitor, partial curve]
CCN(c1ccccc1)S(=O)(=O)c1ccc(NC(=O)c2nc(S(C)(=O)=O)ncc2Cl)cc1 20 µM [inhibitor, partial curve, poor fit] and 25.1 µM [inhibitor, partial curve]
Cc1ccc(-c2ccc(C3C(C#N)=C(N)Oc4n[nH]c(C)c43)o2)cc1 (stereo not drawn) 17.8 µM [inhibitor, full curve, poor fit]
COCCn1cnnc1SCC(=O)Nc1sc2c(c1C#N)CCC2 56.2 µM [inhibitor, partial curve, poor fit]
CCOc1nc(NCCO)nc(NCCC2=CCCCC2)n1 31.6 µM [inhibitor, single point]
COc1ccc2[nH]c(-c3cccc(F)c3)cc(=O)c2c1 44.7 µM [inhibitor, partial curve, poor fit]
O=C(COc1ccccc1Cl)N1N=C(c2cccs2)CC1c1ccco1 (stereo not drawn) 20 µM [inhibitor, full curve]
COc1cccc(-c2nc(CS(=O)CC(=O)NCc3ccc(F)cc3)c(C)o2)c1 (stereo not drawn) 2.82 µM [inhibitor, full curve, poor fit]
N#C/C(=C/c1ccc(C(=O)O)cc1)C(=O)NCc1ccccc1 3.98 µM [inhibitor, full curve, poor fit]
COc1cc(NC(C)CCCN)c2ncccc2c1Oc1ccccc1 (stereo not drawn) 39.8 µM [inhibitor, partial curve]

Reprinted at random: 3 compounds from above
Potency, inconclusive:
CCN(c1ccccc1)S(=O)(=O)c1ccc(NC(=O)c2nc(S(C)(=O)=O)ncc2Cl)cc1 20 µM [inhibitor, partial curve, poor fit] and 25.1 µM [inhibitor, partial curve]
COc1ccc2[nH]c(-c3cccc(F)c3)cc(=O)c2c1 44.7 µM [inhibitor, partial curve, poor fit]
COCCn1cnnc1SCC(=O)Nc1sc2c(c1C#N)CCC2 56.2 µM [inhibitor, partial curve, poor fit]
